From PubChem BioAssay AID1487 (National Center for Advancing Translational Sciences (NCATS), 2009)
The list shows a part of the results. These are further read-outs of the screen, such as a control signal, another cell line or another target. No call is given for them. Compounds called inactive in the main read-out are mostly missing here. Potencies come from curve fits of mixed quality, noted in brackets.

Assay: qHTS Assay for Modulators of Lamin A Splicing
Settings: HeLa LMNA splicing GFP/RFP minigene ratio, 48 h
Procedure, shortened: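 S3 HeLa stable clones carrying a lamin A-EGFP splicing minigene plus DsRed2 were seeded at 600 cells/well in Opti-MEM with 2% FBS, pin-dosed and incubated 48 h at 37°C. Acumen cytometry (488 nm) gave the GFP/RFP total-intensity ratio.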

[1] = measured here: GFP splicing reporter channel
[2] = measured here: RFP viability control channel

Row | SMILES | AC50 [1] | AC50 [2]
1 | CCOC(=O)c1[nH]c2ccccc2c1NC(=S)Nc1cc(C)ccc1C | 14.1 µM [rising, single point] | 11.2 µM [rising, partial curve]
2 | COc1ccc(COCCN2CCN(S(=O)(=O)c3ccc(C)cc3)CCC2=O)cc1 | – | 11.2 µM [rising, partial curve]
3 | CCOc1ccc(C2C(=O)N(C3CCCCCC3)CC(=O)N2Cc2ccc(F)cc2)cc1OC (centres undefined) | 35.5 µM [falling, partial curve, poor fit] | –
4 | CC(=O)OC[C@H]1O[C@@H](n2ncc(=O)[nH]c2=O)[C@H](OC(C)=O)[C@@H]1OC(C)=O | 0.562 µM [rising, full curve, poor fit] | 0.562 µM [rising, full curve]
5 | CSc1ccccc1C(=O)N1CCN(c2ncccn2)CC1 | – | 0.0251 µM [falling, full curve, poor fit]
6 | COc1cc(/C=N/NC(=O)c2ccoc2C)cc(OC)c1O | 7.94 µM [falling, partial curve] | –
7 | C/C=C/Cn1c(SCc2ccc(Cl)cc2)nc2c1c(=O)[nH]c(=O)n2C | – | 14.1 µM [rising, single point]
8 | COc1cccc2c(=O)ccoc12 | – | 12.6 µM [rising, single point]
9 | C=CCN1c2ccccc2[C@]23C[C@@H](C(=O)OC)N(C(C)=O)C2=NC(C(=O)OC)=C(C(=O)OC)[C@H]13 | 0.000794 µM [rising, full curve, poor fit] | 0.708 µM [rising, partial curve, poor fit]
10 | COc1ccc(NC(=O)CN2CCN(c3nc(-c4cccc(OC)c4)cs3)CC2)cc1 | – | 2.51 µM [rising, partial curve, poor fit]
11 | O=C(CCl)Nc1cccc2ncccc12 | 35.5 µM [falling, single point] | 35.5 µM [falling, single point]
12 | O/N=C\c1ccccc1Oc1ccc(F)cc1 | 0.501 µM [falling, full curve, poor fit] | 0.794 µM [falling, full curve, poor fit]
13 | Cc1nc(SCc2cc(=O)c3cccc(F)c3[nH]2)n[nH]1 | – | 35.5 µM [rising, single point]
14 | COc1ccccc1Oc1ccc2c(c1)C(=O)N(c1cccc3ncccc13)C2=O | – | 12.6 µM [rising, single point]
15 | CCN1CCN(c2ncc(C(=O)Nc3cc(Cl)ccc3OC)c3ccccc23)CC1 | 15.8 µM [rising, single point] | 22.4 µM [rising, single point]
16 | Cc1cccc(-c2n[nH]c(=S)n2-c2ccccc2)c1[N+](=O)[O-] | 4.47 µM [falling, single point] | 5.62 µM [falling, single point]
17 | O=C(O)c1ccc(N2C(=O)CC(SC(=Nc3ccccc3)Nc3ccccc3)C2=O)cc1 (centres undefined) | – | 17.8 µM [rising, single point]
18 | CC(C)c1ccc(NC(=O)CSc2ncnc3c2sc2ccccc23)cc1 | – | 1.41 µM [rising, partial curve]
19 | COc1ccccc1NC(=O)c1ccc(NC(=O)CN(C)Cc2ccccc2F)cc1 | – | 35.5 µM [falling, single point]
20 | COc1ccccc1NCC(=O)NNC(C)C(=O)Nc1cccc(Cl)c1 (centres undefined) | 0.158 µM [rising, full curve, poor fit] | 0.158 µM [rising, full curve, poor fit]
21 | Cc1ccc(S(=O)(=O)N(C)c2ccc(C(=O)N3CCCCC3)cc2)cc1 | 0.0282 µM [rising, full curve, poor fit] | 35.5 µM [rising, single point]
22 | Cc1ccc2nc(NCc3ccccc3)[nH]c2c1 | 35.5 µM [rising, single point] | 11.2 µM [rising, partial curve]
23 | CC(C)N=c1cc2n(-c3ccc(Cl)cc3)c3ccccc3nc-2cc1Nc1ccc(Cl)cc1 | 0.178 µM [falling, full curve, poor fit] | 11.2 µM [falling, single point]
24 | CCOC(=O)Cn1c(=O)n(-c2ccccc2OC)c2nc(-c3ccccc3)nc(C(N)=O)c21 | – | 0.112 µM [falling, full curve, poor fit]
25 | O=C(Nc1ccc(S(=O)(=O)Nc2ncccn2)cc1)c1ccc(Br)o1 | – | 0.0794 µM [falling, full curve, poor fit]
26 | O=C(O)c1ccccc1C(=O)Nc1n[nH]c(=S)s1 | – | 5.62 µM [rising, single point]
27 | COc1ccnc(Oc2ccc(F)cc2)c1C(=O)N/C=N/OCc1ccc(F)cc1Cl | – | 35.5 µM [rising, single point]

Row | SMILES | AC50 [1] | AC50 [2]
28 | CCCN(CC1CC1)C(=O)CCc1nnc(C(OC)c2ccccc2)o1 (centres undefined) | 5.62 µM [falling, single point] | 5.01 µM [falling, single point]
29 | C=CCNC(=S)/C(=C(/[O-])c1ccccc1Br)[n+]1ccccc1 | – | 0.178 µM [rising, full curve, poor fit]
30 | COc1cccc(NS(=O)(=O)c2ccc3[nH]c4c(c3c2)CCCCCC4)c1 | 35.5 µM [falling, single point] | 35.5 µM [falling, single point]
31 | S=C(NC1CCCCC1)N1CCc2ccccc2C1 | 20 µM [rising, partial curve] | 14.1 µM [rising, partial curve]
32 | CCn1c(N2CCN(S(=O)(=O)c3ccccc3C(F)(F)F)CC2)nc2ccccc21 | – | 31.6 µM [rising, single point]
33 | O=C(Nc1ccc(Cl)c(Cl)c1)Nc1nnc(-c2ccncc2)s1 | – | 17.8 µM [rising, single point]
34 | O=C(O)COn1c(-c2ccccc2)nc2ccc([N+](=O)[O-])cc21 | – | 0.0282 µM [falling, full curve, poor fit]
35 | COc1cccc(Nc2nnc(SCC3CCCCO3)s2)c1 (centres undefined) | – | 0.0355 µM [falling, full curve, poor fit]
36 | C[C@H]1Cc2c(-c3ccccc3)nc3c(c2CO1)CN(C(=O)c1cccnc1)CC3 | 4.47 µM [rising, partial curve, poor fit] | 6.31 µM [rising, partial curve, poor fit]
37 | CCCCC(=O)Nc1nc(C)c(-c2csc(Nc3cc(OC)ccc3OC)n2)s1 | 22.4 µM [falling, single point] | 8.91 µM [falling, partial curve, poor fit]
38 | O=C(CNCc1cccs1)Nc1ccc(N2CCCCCC2)cc1 | 10 µM [falling, partial curve, poor fit] | 0.126 µM [falling, full curve]
39 | CN1C(=O)C(O)(CC(=O)c2ccccc2O)c2cc(Br)ccc21 (centres undefined) | – | 7.08 µM [rising, partial curve, poor fit]
40 | CCOC(=O)c1c(C2CC2)csc1NC(=O)CSCc1c(C)noc1C | – | 35.5 µM [rising, single point]
41 | O=c1ccn(Cc2ccc(F)cc2)c2ccnc(C(F)(F)F)c12 | 8.91 µM [rising, partial curve] | 11.2 µM [rising, partial curve]
42 | O=C(CCCc1nc(-c2ccccc2)no1)NCc1cccnc1 | 14.1 µM [rising, partial curve] | 12.6 µM [rising, partial curve]
43 | c1ccc(CNC2=NCCCC2)cc1 | 0.562 µM [falling, full curve] | 0.708 µM [falling, full curve]
44 | N[C@@H]1CONC1=O | – | 6.31 µM [falling, single point]
45 | CCc1nc(SCC(=O)N2CCCc3ccccc32)c2oc3ccccc3c2n1 | 20 µM [falling, single point] | 31.6 µM [falling, single point]
46 | O=C(NCC(c1cccnc1)N1CCN(c2ccccc2F)CC1)OCc1ccccc1 (centres undefined) | – | 31.6 µM [rising, single point]
47 | COc1cc(C(=O)Nc2ccc3c(c2)Cc2ccccc2-3)cc(OC)c1OC | – | 3.16 µM [rising, single point]
48 | Fc1ccccc1NC(=S)N1CCN(C/C=C/c2ccccc2)CC1 | – | 31.6 µM [rising, single point]
49 | Clc1ccccc1CSc1nnc(-c2cccnc2)n1Cc1ccco1 | 0.0126 µM [rising, full curve, poor fit] | 0.0178 µM [rising, full curve]
50 | COc1ccc(CCN(Cc2cccs2)S(=O)(=O)c2ccc(S(=O)(=O)N(C)C3CCCCC3)cc2)cc1OC | 5.62 µM [rising, partial curve] | 6.31 µM [rising, full curve]
51 | COc1cccc(Cn2c(=O)c(-c3cn(C)c4ccccc34)nc3cncnc32)c1 | 0.891 µM [falling, full curve] | 1 µM [falling, full curve]
52 | CN(c1ccccc1)S(=O)(=O)c1nnc(NC(=O)c2ccco2)s1 | 0.0224 µM [rising, full curve, poor fit] | 0.0355 µM [rising, full curve, poor fit]
53 | CCOC(=O)C1=C(C)NC(C)=C(C(=O)OCC)C1c1cccs1 | – | 35.5 µM [rising, single point]
54 | Cc1ccc(NC(=O)c2cc(-c3cccs3)nc3ccccc23)nc1 | 0.00794 µM [rising, full curve, poor fit] | –

As entered above:
S=C(NC1CCCCC1)N1CCc2ccccc2C1 – AC50 [2]: 14.1 µM [rising, partial curve]
CN1C(=O)C(O)(CC(=O)c2ccccc2O)c2cc(Br)ccc21 (centres undefined) – AC50 [2]: 7.08 µM [rising, partial curve, poor fit]
CCOC(=O)c1c(C2CC2)csc1NC(=O)CSCc1c(C)noc1C – AC50 [2]: 35.5 µM [rising, single point]
O=C(O)COn1c(-c2ccccc2)nc2ccc([N+](=O)[O-])cc21 – AC50 [2]: 0.0282 µM [falling, full curve, poor fit]
